Data reported in article PMC7532662.

Target: α-tubulin, endogenous (human (endogenous in MDA-MB-231 and 293T))
Test: co-IP; lysate of SYTL4-overexpressing MDA-MB-231 cells, precipitated with anti-α-tubulin antibody, western blot

binding: binds
B1: Synaptotagmin-like 4 (SYTL4), overexpressed without a tag (protein, UniProt Q96C24 1-671)
chain: MSELLDLSFLSEEEKDLILSVLQRDEEVRKADEKRIRRLKNELLEIKRKGAKRGSQHYSDRTCARCQESLGRLSPKTNTCRGCNHLVCRDCRIQESNGTWRCKVCAKEIELKKATGDWFYDQKVNRFAYRTGSEIIRMSLRHKPAVSKRETVGQSLLHQTQMGDIWPGRKIIQERQKEPSVLFEVPKLKSGKSALEAESESLDSFTADSDSTSRRDSLDKSGLFPEWKKMSAPKSQVEKETQPGGQNVVFVDEGEMIFKKNTRKILRPSEYTKSVIDLRPEDVVHESGSLGDRSKSVPGLNVDMEEEEEEEDIDHLVKLHRQKLARSSMQSGSSMSTIGSMMSIYSEAGDFGNIFVTGRIAFSLKYEQQTQSLVVHVKECHQLAYADEAKKRSNPYVKTYLLPDKSRQGKRKTSIKRDTINPLYDETLRYEIPESLLAQRTLQFSVWHHGRFGRNTFLGEAEIQMDSWKLDKKLDHCLPLHGKISAESPTGLPSHKGELVVSLKYIPASKTPVGGDRKKSKGGEGGELQVWIKEAKNLTAAKAGGTSDSFVKGYLLPMRNKASKRKTPVMKKTLNPHYNHTFVYNGVRLEDLQHMCLELTVWDREPLASNDFLGGVRLGVGTGISNGEVVDWMDSTGEEVSLWQKMRQYPGSWAEGTLQLRSSMAKQKLGL

These are yes or no findings as the source states them, for the method shown. In cells and extracts the contact can be indirect. Binding can be weak; no strength is given. Where a sequence is shown, tags or fusion partners need not be part of it.
